Experimental data as given in patent US9925235B2, “Tilapia piscidins for use in enhancement of wound healing” (Academia Sinica, priority 2015, dated 2018).
Entries after “also recorded” stand apart in the source; their conditions may differ. Not every detail of the peptide structures is certain; ends, links or a residue may be inferred. Peptide text beside a SMILES is read from it.

How the values were obtained:
Assay type in all cases: in vivo, Balb/c mice
MRSA [1] = test: Mouse model of MRSA sepsis, TP3
Procedure: Female Balb/c mice (6-8 weeks old) were injected intraperitoneally with 10^6 CFU MRSA per mouse. Ten minutes after MRSA injection, mice were injected intraperitoneally with vancomycin (0.01 mg/g mouse body weight), methicilin (0.01 mg/g mouse body weight), or TP3 (0.005 mg/g mouse body weight). In a second set of experiments, mice were given intraperitoneal injections of TP3 (0.005 mg/g mouse body weight) at 10, 60, 120, or 180 min after MRSA injection. The survival rate and status were recorded every 24 h for up to 192 h. To examine bacterial dissemination, mice were sacrificed at 48 h after injection with antibiotics or TP3, and the bacterial numbers in blood, peritoneum, spleen, liver, and mesenteric lymph nodes were recorded. Colony counts from the diluted bacterial solutions were expressed relative to those at the start of treatment. These experiments consisted of four groups, and each group contained 5 mice.

MRSA [2] = test: Mouse wound healing model, wound closure and microbial load, TP3; conditions: for Bacterial Count: wound
Procedure: Female Balb/c mice (6-8 weeks old) were used for wound healing experiments. All mice were housed individually to prevent fighting and further damage to the wounds, and they were provided with food and water ad libitum. Mice were maintained on a 12 h light: dark cycle at room temperature, and acclimatized to the environment for at least a week before use in experiments. All researchers wore caps, sterile gloves, gowns, and shoe covers when handling mice. Hair was removed from the back of the mice by shaving, and a full thickness wound (1 cm in diameter) was then created in the exposed region. Each wound was inoculated with 50 μl of broth mix containing 10^6 cfu (colony forming units) of S. aureus. At 5 min after inoculation, 50 μl TP3 (2 mg/ml) in a total volume of 0.1 ml were applied. Thirty minutes after treatment, wounds were covered with Tegaderm (3M, St. Paul, Minn.) to maintain uniformity, and to prevent the mice from removing the treatments. Based on initial experiments, we examined the wounds at 0, 3, 5 and 19 days post-injury, so as not to disturb the infection. Such examinations captured the transitions from inflammatory to regenerative, and regenerative to resolving phases of wound healing. Animals were subsequently euthanized by CO2 inhalation and the wounds assessed. Four individuals in each group were examined at each time point for each experiment. Each wound was measured and then removed from the animal, with unwounded skin taken from the contralateral dorsum as a control. Each biopsy was bisected with three sections being used for tensiometry and histology, and two sections for quantitative determination of microbial load. Wound healing studies were repeated in triplicate.
Tracings were taken immediately after injury. For uncontaminated wounds, wound size was determined every second day. For contaminated wounds, mice were euthanized at days 3, 5, 19 and tracings of the wound edges were made. Wound areas were determined using the Macintosh Adobe Photoshop program, Histogram Analysis. The percentage of wound contraction was calculated as follows: % Wound contraction=(A0−At)/A0×100, where A0 is the original wound area, and At is the area of wound at the time of biopsy on every two days, accordingly.
Multidrug-resistant strains of Staphylococcus aureus commonly associated with human wound infections were selected to generate a polymicrobial solution. The MRSA strain is a clinical isolate from stool obtained from Taipei City Hospital (Heping Fuyou branch). The initial inoculum was prepared by culturing aerobic bacteria in Tryptic Soy Broth (TSB) overnight at 37° C. Broths were subsequently centrifuged at 1000 rpm for 15 min, and resuspended in TSB with 15% glycerol, or chopped meat extract with 15% glycerol (for aerobic bacteria). The concentration was adjusted to 10^6 cfu/50 μl, and stored at −80° C. Prior to wound application, […]

MRSA [3] = test: Histology and IHC of wound tissue, TP3; conditions: infected wounds
Procedure: Skin tissues were removed and fixed as previously described. In brief, the cryosections were fixed with 4% formaldehyde, and the tissue samples were stained with hematoxylin/eosin, Giemsa, or Gram stain. IHC was analyzed by three independent investigators. Images were taken using a BX-51 microscope (Olympus, Japan).

CC[C@H](C)[C@H](NC(=O)[C@H](CC(C)C)NC(=O)[C@H](CO)NC(=O)[C@H](Cc1c[nH]cn1)NC(=O)[C@@H](NC(=O)[C@H](Cc1c[nH]cn1)NC(=O)[C@H](CCCCN)NC(=O)CNC(=O)[C@@H](NC(=O)[C@H](CO)NC(=O)[C@H](Cc1ccccc1)NC(=O)[C@H](CC(C)C)NC(=O)CNC(=O)CNC(=O)[C@@H](NC(=O)[C@@H](NC(=O)[C@H](Cc1c[nH]cn1)NC(=O)[C@H](Cc1c[nH]cn1)NC(=O)[C@@H](NC(=O)[C@@H](N)Cc1ccccc1)[C@@H](C)CC)[C@@H](C)CC)[C@@H](C)CC)C(C)C)[C@@H](C)CC)C(=O)N[C@@H](Cc1c[nH]cn1)C(=O)NCC(=O)N[C@@H](Cc1c[nH]cn1)C(=O)O [TP3, Tilapia piscidin 3] (H-FIHHIIGGLFSVGKHIHSLIHGH-OH)
Mean ± SD count, Blood (MRSA [1]; 48 h after injection): 0^A CFU/ml | Mean ± SD count, Liver (MRSA [1]; 48 h after injection): 4.4 × 10^7 ± 1 × 10^7A CFU/ml | Mean ± SD count, Mesenteric lymph nodes (MRSA [1]; 48 h after injection): 1.6 × 10^6 ± 1 × 10^6A CFU/ml | Mean ± SD count, Peritoneum (MRSA [1]; 48 h after injection): 1.4 × 10^9 ± 1 × 10^9A CFU/ml | Mean ± SD count, Spleen (MRSA [1]; 48 h after injection): 9 × 10^7 ± 8.2 × 10^7A CFU/ml | bacterial burden in organs vs untreated controls (MRSA [1]; P<0.05): significantly reduced the bacterial burden in all examined organs | wound closure (MRSA [2]; MRSA-contaminated full-thickness wounds): wound closure was accelerated; also recorded: closed somewhat faster | wound size (MRSA [2]; contaminated wounds, by 14 days, P<0.05): smaller than that of the vancomycin-treated group | Bacterial Count (MRSA [2]; day 0): 4.3 × 10^4 CFU/10 μl | Bacterial Count (MRSA [2]; day 3): 1 × 10^4 CFU/10 μl | Bacterial Count (MRSA [2]; day 5): 1.42 × 10^2 CFU/10 μl | Bacterial Count (MRSA [2]; day 19): 0 CFU/10 μl | dermal maturation (proliferation, remodeling, maturation stages) (MRSA [3]): accelerated progression at all three of these stages | time to fully mature, multilayered epidermis (MRSA [3]): ≤ 25 days
